Screening data, single-dose tests

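Whole-cell growth test on Mycobacterium tuberculosis, read after 3 days in glucose-containing 7H9 medium; the read-out is not stated. Compounds at 50 µM. Direction is inferred from retests: higher values go with more growth inhibition. Size under these conditions: about 69,000 compounds, about 760 of them at 50% or above in at least one test.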

The filed quantity is “Percent Effect” (%).
The record does not define 0% and 100%; most values in the screen are far below 50% and negative numbers occur (in some assays of this library far below -100).
This is an unselected part of the compounds tested.
Two or more numbers in one place are separate tests of the same structure; such repeats can differ widely.

{"smiles": "c1cc(-c2cc(C3CCN(Cc4cncnc4)C3)ccn2)ccn1", "stereo": "stereo unspecified", "percent effect": 22.51}
{"smiles": "O=C(c1ccnc(CC2COc3ccccc3C2)c1)N1CCCC1", "stereo": "stereo unspecified", "percent effect": -13.2}
{"smiles": "O=C(O)C(F)(F)F.O=C(O)C(F)(F)F.[H][C@]12C[C@@H](Cn3cncn3)N(C)[C@@]1([H])CCN(Cc1ccsc1)C2", "percent effect": -12.29}
{"smiles": "COCc1noc(-c2ccc(N(C)Cc3cn(C)nc3C)nc2)n1", "percent effect": 35.49}
{"smiles": "[H][C@@]12COC[C@]1(COCC(=O)N(C)C)CN(Cc1cc(C)on1)C2", "percent effect": 8.335}
{"smiles": "O=C(CCN1C(=O)CCC1=O)Nc1cnn(-c2ccccc2Cl)c1", "percent effect": -29.18}
{"smiles": "c1ccc(COCCN2CCc3[nH]cnc3C2c2ccoc2)cc1", "stereo": "stereo unspecified", "percent effect": 13}
{"smiles": "CC(=O)N(C)c1nc(CN2CCOC(Cn3cc(C)cn3)C2)cs1", "stereo": "stereo unspecified", "percent effect": -33.18}
{"smiles": "CC(C)NC(=O)C1(Cc2ccccc2-c2cncnc2)CCCNC1", "stereo": "stereo unspecified", "percent effect": -5.806}
{"smiles": "CCc1nc2c(N3CCC4(CC3)CNC(=O)C4)ncnc2o1", "percent effect": 7.757}
{"smiles": "Clc1ccc(CNc2ccc(Cl)cn2)cc1", "percent effect": 19.32}
{"smiles": "COCCN1CCC2(CC1)CC(NC(=O)CN(C)C)c1ccccc1O2.O=C(O)C(F)(F)F.O=C(O)C(F)(F)F", "stereo": "stereo unspecified", "percent effect": -18.41}
{"smiles": "Cc1cccnc1NCCNC(=O)c1cnc(-c2ccccn2)nc1O", "percent effect": 21.83}
{"smiles": "CCN(CC1CCCO1)C(=O)Nc1cc(C)ccc1S(C)(=O)=O", "stereo": "stereo unspecified", "percent effect": "-2.754 & -20.05"}
{"smiles": "Cc1noc(CS(=O)(=O)c2cc(F)ccc2F)n1", "percent effect": "1.728 & 10.11"}
{"smiles": "Cc1ccc(CN2CCC3(CC2)CC3CN(C)Cc2cccnc2)o1.O=C(O)C(F)(F)F.O=C(O)C(F)(F)F.O=C(O)C(F)(F)F", "stereo": "stereo unspecified", "percent effect": "-7.761 & 1.415"}
{"smiles": "Cn1cc(CCNC(=O)N2CCCc3c(F)cccc32)cn1", "percent effect": "11.05 & 31.48"}
{"smiles": "Cc1ccc(CN2CCC3(CC2)C(=O)N(CC(C)C)CCN3C)o1.O=C(O)C(F)(F)F.O=C(O)C(F)(F)F", "percent effect": -30.55}
{"smiles": "Cc1cc(C)nc(N2CCC(c3noc(C)n3)CC2)n1", "percent effect": 34.91}
{"smiles": "Cc1cnn(CC2CCCN2C(=O)c2cccc(-n3ccc(C)n3)c2)c1", "stereo": "stereo unspecified", "percent effect": "1.995 & 9.335"}
{"smiles": "COCC(=O)N1CCC2(CC1)CN(c1cncnc1)C(=O)CO2", "percent effect": -8.692}
{"smiles": "CCOC(=O)CC(c1cccc(OC)c1OC)c1c(C)[nH][nH]c1=O", "stereo": "stereo unspecified", "percent effect": "7.648 & 19.05 & 2.233 & 1.52"}
{"smiles": "CCOc1ncccc1NC(=O)NCC(O)c1ccc(OC)cc1", "stereo": "stereo unspecified", "percent effect": -21.37}
{"smiles": "COC(=O)CC1CSCCN1C(=O)CCc1c(C)nn(C)c1C", "stereo": "stereo unspecified", "percent effect": -9.409}
{"smiles": "Cc1ccc(OCc2occc2C(=O)O)cc1", "percent effect": -9.232}
{"smiles": "CN(C)CCn1c(=O)oc2ccc(NC(=O)N3CCCCCC3)cc21", "percent effect": 3.795}
{"smiles": "CCOCC1CN(C(=O)c2ccncc2)Cc2nn(C)cc21.O=C(O)C(F)(F)F", "stereo": "stereo unspecified", "percent effect": 6.126}
{"smiles": "COc1cccc(N2CCN(C(=O)c3noc4c3CCCC4)CC2)c1", "percent effect": 29.31}
{"smiles": "Cc1nc(N)ncc1C(=O)N1CCCC(CCc2ccccc2F)C1", "stereo": "stereo unspecified", "percent effect": "-17.92 & 4.491"}
{"smiles": "CC(C)CNC(=O)NC(=O)CNc1ccccc1SCC(C)C#N", "stereo": "stereo unspecified", "percent effect": "2.23 & -21.36"}
{"smiles": "Cc1ccc(NS(=O)(=O)c2cccc(C#N)c2)c(CN(C)C)c1", "percent effect": -18.9}
{"smiles": "CCOc1ncccc1NC(=O)N1CCCN(C(=O)OC)CC1", "percent effect": -12.62}
{"smiles": "Cc1ccc(CN2CCC3(CC(=O)N(c4cccc(F)c4)C3)C2)o1.O=C(O)C(F)(F)F", "stereo": "stereo unspecified", "percent effect": "33.52 & 29.59"}
{"smiles": "Cc1ccc(C)c(CC(=O)NC2CCC(N3C(=O)CCC3=O)CC2)c1", "stereo": "stereo unspecified", "percent effect": "20.51 & -3.238"}
{"smiles": "O=c1oc(-c2cccs2)nn1CC(O)c1ccccc1", "stereo": "stereo unspecified", "percent effect": 6.492}
{"smiles": "CN1CC2(CCN(C(=O)c3coc4c3C(=O)CCC4)C2)OC1=O", "stereo": "stereo unspecified", "percent effect": -3.022}
{"smiles": "CCN(CC)S(=O)(=O)NCC1COc2ccccc2O1", "stereo": "stereo unspecified", "percent effect": -13.46}
{"smiles": "CN(C)C(=O)CN1CCC2(C1)CN(CC1CCOCC1)C2", "percent effect": "-0.6421 & 9.419"}
{"smiles": "O=C(O)C(F)(F)F.[H][C@@]12CCN(CCc3ccccc3)C[C@@]1([H])[C@H](C(=O)NCC1CC1)CCO2", "percent effect": 11.79}
{"smiles": "CCOc1ccc(NC(=O)Cc2cc(C)[nH]n2)cc1CO", "percent effect": 35.26}
{"smiles": "CCN(CC)C(=O)c1cccc(Cn2nc(C)cc2C)c1", "percent effect": 15.34}
{"smiles": "CN(Cc1cn2c(n1)CN(CC1CC1)CC2)Cc1ccco1.O=C(O)C(F)(F)F.O=C(O)C(F)(F)F", "percent effect": -2.232}
{"smiles": "O=C1CCCN1C(CNS(=O)(=O)C1CC1)Cc1cccc(F)c1", "stereo": "stereo unspecified", "percent effect": 11.73}
{"smiles": "Cc1ccc(-c2nnc(CN3CCOCC(CO)C3)o2)n1C", "stereo": "stereo unspecified", "percent effect": -6.436}
{"smiles": "Cc1cc(C)nc(N2CCC(Cn3cc(C(N)=O)cn3)CC2)n1", "percent effect": -19.16}
{"smiles": "CCn1cncc1C1CC(=O)Nc2c1c(C)nn2-c1ccc(C)cc1", "stereo": "stereo unspecified", "percent effect": -9.494}
{"smiles": "Cn1nnnc1SCCNC(=O)CC1CCc2ccccc21", "stereo": "stereo unspecified", "percent effect": 9.53}
{"smiles": "Cc1cnn(Cc2cc(F)ccc2F)c1NC(=O)C1CCOCC1", "percent effect": -34.64}
{"smiles": "CNC(=O)c1cc(NC(=O)NC(C)CCc2cccn2C)ccc1F", "stereo": "stereo unspecified", "percent effect": -15.21}

Some entries from above, unchanged:

| SMILES | percent effect |
|---|---|
| `CN(C)C(=O)CN1CCC2(C1)CN(CC1CCOCC1)C2` | -0.6421% & 9.419% |
| `c1cc(-c2cc(C3CCN(Cc4cncnc4)C3)ccn2)ccn1` (stereo unspecified) | 22.51% |
| `Cc1nc(N)ncc1C(=O)N1CCCC(CCc2ccccc2F)C1` (stereo unspecified) | -17.92% & 4.491% |
| `CCOc1ncccc1NC(=O)NCC(O)c1ccc(OC)cc1` (stereo unspecified) | -21.37% |

Source: ChEMBL document CHEMBL3988442, “University of Dundee, Small-Polar-MMV Screening Library” (2021).